Data from the supplement of paper PMC12823440, “Inhibitors supercharge kinase turnover through native proteolytic circuits” (Nature, 2025).
Where a name gives a salt, the structure may show the parent alone. Some of the results follow. Hit calls seldom repeat between salt and free forms of one compound.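 Kinases were expressed as nanoluciferase fusions in K562 cells and luminescence was read every 4 h between 2 and 18 h as percent of control, DMSO set to 100% and a positive control to 0%. A time point counts as decreased when the signal drops significantly (2 sigma). The hit call is the authors' own, does not follow from the count of time points alone, and its rule is not shown.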

Chains of the proteins cited; added tags and fusions are not shown. Lines headed by an entry give the natural chain unless they say otherwise; changes in a name come on top.
UniProt P07949, whole entry, looked up: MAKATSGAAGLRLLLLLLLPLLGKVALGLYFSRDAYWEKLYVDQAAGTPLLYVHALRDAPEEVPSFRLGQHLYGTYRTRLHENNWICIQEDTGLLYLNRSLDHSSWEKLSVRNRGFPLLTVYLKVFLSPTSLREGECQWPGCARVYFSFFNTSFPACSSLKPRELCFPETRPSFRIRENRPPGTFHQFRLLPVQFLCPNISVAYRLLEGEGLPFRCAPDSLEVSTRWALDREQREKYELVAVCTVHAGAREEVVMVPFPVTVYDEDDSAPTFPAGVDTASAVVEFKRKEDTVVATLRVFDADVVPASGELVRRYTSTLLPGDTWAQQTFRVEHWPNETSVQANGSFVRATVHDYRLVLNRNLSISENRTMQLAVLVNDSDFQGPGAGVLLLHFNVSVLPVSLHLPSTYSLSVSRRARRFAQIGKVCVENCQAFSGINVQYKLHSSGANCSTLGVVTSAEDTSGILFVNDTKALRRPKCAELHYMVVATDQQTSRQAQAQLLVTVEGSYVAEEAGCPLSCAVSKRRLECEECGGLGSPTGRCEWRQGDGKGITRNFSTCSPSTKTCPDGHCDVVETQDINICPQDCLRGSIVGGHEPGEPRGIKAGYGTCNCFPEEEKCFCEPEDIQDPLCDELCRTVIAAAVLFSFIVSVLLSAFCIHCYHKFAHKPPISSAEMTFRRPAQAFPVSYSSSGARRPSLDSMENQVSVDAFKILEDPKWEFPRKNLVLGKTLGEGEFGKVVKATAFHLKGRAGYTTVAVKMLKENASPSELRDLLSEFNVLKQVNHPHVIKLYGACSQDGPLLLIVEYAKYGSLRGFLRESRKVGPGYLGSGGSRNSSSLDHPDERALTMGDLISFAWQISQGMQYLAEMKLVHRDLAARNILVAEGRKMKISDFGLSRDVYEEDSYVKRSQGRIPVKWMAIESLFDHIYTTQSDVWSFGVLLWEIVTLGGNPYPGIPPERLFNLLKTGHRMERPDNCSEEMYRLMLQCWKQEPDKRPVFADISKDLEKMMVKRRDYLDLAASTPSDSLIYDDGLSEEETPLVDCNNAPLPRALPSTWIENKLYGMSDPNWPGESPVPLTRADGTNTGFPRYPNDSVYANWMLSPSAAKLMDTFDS
UniProt P07949, whole entry M918T, looked up: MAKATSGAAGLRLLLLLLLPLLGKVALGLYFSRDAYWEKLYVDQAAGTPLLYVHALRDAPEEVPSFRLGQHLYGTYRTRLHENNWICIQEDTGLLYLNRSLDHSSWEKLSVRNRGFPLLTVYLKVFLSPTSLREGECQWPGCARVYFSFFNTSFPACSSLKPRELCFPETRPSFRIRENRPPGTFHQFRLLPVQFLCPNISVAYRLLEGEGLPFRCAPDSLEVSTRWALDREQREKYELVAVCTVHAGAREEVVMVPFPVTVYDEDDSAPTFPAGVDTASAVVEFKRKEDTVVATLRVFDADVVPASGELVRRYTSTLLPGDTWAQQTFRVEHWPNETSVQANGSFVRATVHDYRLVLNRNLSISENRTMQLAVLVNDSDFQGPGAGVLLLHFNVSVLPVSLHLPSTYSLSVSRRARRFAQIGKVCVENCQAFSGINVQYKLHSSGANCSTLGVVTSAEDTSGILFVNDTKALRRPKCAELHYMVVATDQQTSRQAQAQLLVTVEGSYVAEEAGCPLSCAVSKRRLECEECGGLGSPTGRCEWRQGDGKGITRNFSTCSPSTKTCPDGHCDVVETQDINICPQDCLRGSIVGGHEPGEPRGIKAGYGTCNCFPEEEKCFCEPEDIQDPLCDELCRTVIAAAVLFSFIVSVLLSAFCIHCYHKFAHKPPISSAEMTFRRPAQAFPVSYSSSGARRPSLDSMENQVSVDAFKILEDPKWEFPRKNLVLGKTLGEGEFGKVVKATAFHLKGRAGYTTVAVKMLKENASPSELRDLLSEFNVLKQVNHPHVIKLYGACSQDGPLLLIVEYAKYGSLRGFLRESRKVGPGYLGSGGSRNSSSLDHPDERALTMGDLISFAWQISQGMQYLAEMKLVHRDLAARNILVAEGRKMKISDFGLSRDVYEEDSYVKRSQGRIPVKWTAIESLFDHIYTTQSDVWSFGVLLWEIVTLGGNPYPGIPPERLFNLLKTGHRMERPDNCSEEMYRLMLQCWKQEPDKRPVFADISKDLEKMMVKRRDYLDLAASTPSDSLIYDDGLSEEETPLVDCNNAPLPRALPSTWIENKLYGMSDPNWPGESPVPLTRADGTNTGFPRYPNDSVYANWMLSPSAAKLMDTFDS
UniProt Q01974, whole entry: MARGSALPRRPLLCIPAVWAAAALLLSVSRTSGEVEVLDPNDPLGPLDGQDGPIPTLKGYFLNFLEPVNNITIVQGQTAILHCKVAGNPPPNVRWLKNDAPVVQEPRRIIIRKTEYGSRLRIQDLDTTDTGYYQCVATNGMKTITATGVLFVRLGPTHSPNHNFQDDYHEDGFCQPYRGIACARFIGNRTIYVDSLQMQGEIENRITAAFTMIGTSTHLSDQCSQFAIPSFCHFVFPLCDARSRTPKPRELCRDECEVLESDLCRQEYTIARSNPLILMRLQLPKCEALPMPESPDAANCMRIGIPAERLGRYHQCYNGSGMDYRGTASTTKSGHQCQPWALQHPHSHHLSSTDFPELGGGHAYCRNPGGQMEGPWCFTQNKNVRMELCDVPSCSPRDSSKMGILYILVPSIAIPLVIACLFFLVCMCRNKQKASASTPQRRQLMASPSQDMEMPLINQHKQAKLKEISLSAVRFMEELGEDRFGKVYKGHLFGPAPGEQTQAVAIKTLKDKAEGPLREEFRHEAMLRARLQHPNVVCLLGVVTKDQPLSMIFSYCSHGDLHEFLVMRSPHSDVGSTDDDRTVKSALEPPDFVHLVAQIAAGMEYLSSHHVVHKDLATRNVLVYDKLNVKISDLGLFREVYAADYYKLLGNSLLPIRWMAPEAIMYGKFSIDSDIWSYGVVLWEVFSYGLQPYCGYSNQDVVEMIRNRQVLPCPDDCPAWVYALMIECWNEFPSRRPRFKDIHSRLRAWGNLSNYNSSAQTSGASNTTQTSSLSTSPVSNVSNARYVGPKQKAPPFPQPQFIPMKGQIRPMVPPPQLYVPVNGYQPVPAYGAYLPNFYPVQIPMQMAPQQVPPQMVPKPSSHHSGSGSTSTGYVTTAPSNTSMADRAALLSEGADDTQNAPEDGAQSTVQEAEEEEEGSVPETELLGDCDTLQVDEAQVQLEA
UniProt Q15418, whole entry: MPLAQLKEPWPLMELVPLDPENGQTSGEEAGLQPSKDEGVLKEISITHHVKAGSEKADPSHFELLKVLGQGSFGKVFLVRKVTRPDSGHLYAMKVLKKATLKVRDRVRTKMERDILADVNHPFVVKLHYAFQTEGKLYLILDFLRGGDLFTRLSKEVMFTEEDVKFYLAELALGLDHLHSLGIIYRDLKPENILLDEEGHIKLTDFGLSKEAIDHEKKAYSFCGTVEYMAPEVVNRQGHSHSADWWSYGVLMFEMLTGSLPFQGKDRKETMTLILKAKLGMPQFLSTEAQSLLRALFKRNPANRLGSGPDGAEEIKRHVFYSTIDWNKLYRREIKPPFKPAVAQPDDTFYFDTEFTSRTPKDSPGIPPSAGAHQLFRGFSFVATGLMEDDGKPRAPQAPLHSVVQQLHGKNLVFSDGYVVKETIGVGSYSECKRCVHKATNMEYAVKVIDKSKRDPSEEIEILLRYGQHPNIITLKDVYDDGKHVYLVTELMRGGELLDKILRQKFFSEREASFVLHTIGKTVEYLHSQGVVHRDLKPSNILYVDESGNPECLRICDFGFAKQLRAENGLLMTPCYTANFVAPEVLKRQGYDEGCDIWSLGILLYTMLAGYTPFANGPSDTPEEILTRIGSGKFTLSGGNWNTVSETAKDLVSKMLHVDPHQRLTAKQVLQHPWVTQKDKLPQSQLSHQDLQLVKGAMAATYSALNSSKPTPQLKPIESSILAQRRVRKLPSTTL
UniProt Q9NYA1, whole entry: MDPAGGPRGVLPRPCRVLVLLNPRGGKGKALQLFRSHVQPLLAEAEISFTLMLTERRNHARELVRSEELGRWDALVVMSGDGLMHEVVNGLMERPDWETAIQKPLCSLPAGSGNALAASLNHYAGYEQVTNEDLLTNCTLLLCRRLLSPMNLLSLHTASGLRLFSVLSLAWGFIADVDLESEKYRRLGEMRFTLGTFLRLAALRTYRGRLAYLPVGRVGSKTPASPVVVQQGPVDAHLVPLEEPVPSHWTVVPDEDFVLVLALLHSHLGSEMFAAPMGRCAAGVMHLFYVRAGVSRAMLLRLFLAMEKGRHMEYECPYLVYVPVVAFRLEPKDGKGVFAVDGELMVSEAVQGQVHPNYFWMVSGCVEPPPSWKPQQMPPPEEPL
UniProt P43403: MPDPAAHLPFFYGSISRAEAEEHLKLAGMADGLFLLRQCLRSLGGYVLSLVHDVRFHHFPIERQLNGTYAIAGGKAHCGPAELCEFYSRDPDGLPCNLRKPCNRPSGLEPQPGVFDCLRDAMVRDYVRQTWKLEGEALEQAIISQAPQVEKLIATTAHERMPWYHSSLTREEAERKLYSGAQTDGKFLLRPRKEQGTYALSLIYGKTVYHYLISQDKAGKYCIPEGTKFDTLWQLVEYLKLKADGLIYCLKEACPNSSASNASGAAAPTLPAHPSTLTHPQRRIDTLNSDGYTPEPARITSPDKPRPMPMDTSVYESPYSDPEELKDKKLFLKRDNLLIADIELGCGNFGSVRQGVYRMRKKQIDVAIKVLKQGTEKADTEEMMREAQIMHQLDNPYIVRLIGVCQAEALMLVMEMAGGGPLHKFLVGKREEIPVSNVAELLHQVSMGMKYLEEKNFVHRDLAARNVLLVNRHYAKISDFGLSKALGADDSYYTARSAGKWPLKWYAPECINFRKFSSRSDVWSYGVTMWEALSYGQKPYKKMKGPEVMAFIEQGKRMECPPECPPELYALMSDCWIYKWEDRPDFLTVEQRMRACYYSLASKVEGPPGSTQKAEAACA
UniProt P00519, whole entry: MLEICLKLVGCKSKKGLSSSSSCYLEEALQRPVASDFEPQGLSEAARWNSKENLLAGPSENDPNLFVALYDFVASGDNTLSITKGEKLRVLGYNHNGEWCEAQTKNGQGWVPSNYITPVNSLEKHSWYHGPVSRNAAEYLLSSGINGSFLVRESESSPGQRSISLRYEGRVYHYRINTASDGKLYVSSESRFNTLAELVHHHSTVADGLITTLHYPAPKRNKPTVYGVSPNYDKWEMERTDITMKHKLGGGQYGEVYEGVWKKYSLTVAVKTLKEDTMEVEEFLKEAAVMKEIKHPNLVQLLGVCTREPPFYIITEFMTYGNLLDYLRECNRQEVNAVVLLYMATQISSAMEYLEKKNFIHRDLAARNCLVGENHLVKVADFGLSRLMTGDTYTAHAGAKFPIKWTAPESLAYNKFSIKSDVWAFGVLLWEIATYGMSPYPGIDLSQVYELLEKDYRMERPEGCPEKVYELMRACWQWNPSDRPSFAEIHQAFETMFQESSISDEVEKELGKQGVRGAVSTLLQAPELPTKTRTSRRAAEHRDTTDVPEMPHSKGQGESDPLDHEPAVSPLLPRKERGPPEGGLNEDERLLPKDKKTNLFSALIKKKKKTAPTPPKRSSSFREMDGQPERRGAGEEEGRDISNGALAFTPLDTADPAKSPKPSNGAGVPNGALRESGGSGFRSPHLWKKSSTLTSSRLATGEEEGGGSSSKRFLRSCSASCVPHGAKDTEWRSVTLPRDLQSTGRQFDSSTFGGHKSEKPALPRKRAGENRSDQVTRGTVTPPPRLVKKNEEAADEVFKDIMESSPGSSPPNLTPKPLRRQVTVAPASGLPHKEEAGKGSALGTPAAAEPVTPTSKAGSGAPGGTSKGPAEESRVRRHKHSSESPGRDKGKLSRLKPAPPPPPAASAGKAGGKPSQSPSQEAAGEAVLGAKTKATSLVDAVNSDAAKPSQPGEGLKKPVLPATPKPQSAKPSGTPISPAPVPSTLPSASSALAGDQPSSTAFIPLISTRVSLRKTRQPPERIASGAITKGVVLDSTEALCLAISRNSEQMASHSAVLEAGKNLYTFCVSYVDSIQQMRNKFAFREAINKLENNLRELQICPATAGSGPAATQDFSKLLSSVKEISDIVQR
UniProt P31749: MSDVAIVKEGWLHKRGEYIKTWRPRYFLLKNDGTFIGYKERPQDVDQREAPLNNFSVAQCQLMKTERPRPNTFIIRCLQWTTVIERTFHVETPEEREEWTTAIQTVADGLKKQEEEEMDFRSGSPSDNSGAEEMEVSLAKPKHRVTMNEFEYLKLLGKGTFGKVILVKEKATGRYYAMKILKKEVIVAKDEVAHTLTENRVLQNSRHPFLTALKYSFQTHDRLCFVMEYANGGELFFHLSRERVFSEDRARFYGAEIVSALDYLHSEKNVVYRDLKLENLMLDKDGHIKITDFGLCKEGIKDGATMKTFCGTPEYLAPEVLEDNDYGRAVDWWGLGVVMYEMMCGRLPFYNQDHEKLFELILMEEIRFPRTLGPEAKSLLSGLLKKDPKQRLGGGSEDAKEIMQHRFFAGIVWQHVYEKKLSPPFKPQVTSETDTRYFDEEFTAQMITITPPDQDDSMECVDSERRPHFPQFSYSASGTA

Assays:
Conditions in all cases: K562; 2-18 h
RET = RET (UniProt P07949); assay: kinase-Nluc reporter destabilization hit call (1 = scored as downregulated) (binary); higher = compound decreases kinase abundance
[1] = biological target: RET_M918T (clone: RET_mut) (UniProt P07949); assay: as above
RIOK1 = RIOK1 (UniProt Q9BRS2); assay: as above
RIPK1 = RIPK1 (UniProt Q13546); assay: as above
RIPK2 = RIPK2 (UniProt O43353); assay: as above
ROR2 = ROR2 (UniProt Q01974); assay: as above
RPS6KA1 = RPS6KA1 (UniProt Q15418); assay: as above
SPHK1 = SPHK1 (UniProt Q9NYA1); assay: as above
SRC = SRC (UniProt P12931); assay: as above
STK24 = STK24 (UniProt Q9Y6E0); assay: as above
STK38 = STK38 (UniProt Q15208); assay: as above
SYK = SYK (UniProt P43405); assay: as above
TEC = TEC (UniProt P42680); assay: as above
TYK2 = TYK2 (UniProt P29597); assay: as above
ULK3 = ULK3 (UniProt Q6PHR2); assay: as above
YES1 = YES1 (UniProt P07947); assay: as above
ZAK = ZAK (UniProt Q9NYL2); assay: as above
ZAP70 = ZAP70 (UniProt P43403); assay: as above
ABL1 = ABL1 (UniProt P00519); assay: number of time points (of 5) at which kinase-Nluc abundance scored as decreased, DMSO-normalised (count); higher = more persistent destabilization
AKT1 = AKT1 (UniProt P31749); assay: as above

| Compound | kinase-Nluc reporter destabilization hit call (RET) | kinase-Nluc reporter destabilization hit call [1] | kinase-Nluc reporter destabilization hit call (RIOK1) | kinase-Nluc reporter destabilization hit call (RIPK1) | kinase-Nluc reporter destabilization hit call (RIPK2) | kinase-Nluc reporter destabilization hit call (ROR2) | kinase-Nluc reporter destabilization hit call (RPS6KA1) | kinase-Nluc reporter destabilization hit call (SPHK1) | kinase-Nluc reporter destabilization hit call (SRC) | kinase-Nluc reporter destabilization hit call (STK24) | kinase-Nluc reporter destabilization hit call (STK38) | kinase-Nluc reporter destabilization hit call (SYK) | kinase-Nluc reporter destabilization hit call (TEC) | kinase-Nluc reporter destabilization hit call (TYK2) | kinase-Nluc reporter destabilization hit call (ULK3) | kinase-Nluc reporter destabilization hit call (YES1) | kinase-Nluc reporter destabilization hit call (ZAK) | kinase-Nluc reporter destabilization hit call (ZAP70) | number of time points (ABL1) | number of time points (AKT1) |
| --- | --- | --- | --- | --- | --- | --- | --- | --- | --- | --- | --- | --- | --- | --- | --- | --- | --- | --- | --- | --- |
| CNC(=O)c1cccc(-c2ccc3c(N4CCOC[C@@H]4C)nc(N4CCOC[C@@H]4C)nc3n2)c1 [Vistusertib] (2.5 µM) | inactive: 0 | active: 1 | inactive: 0 | inactive: 0 | inactive: 0 | inactive: 0 | inactive: 0 | inactive: 0 | inactive: 0 | inactive: 0 | inactive: 0 | inactive: 0 | inactive: 0 | inactive: 0 | inactive: 0 | inactive: 0 | inactive: 0 | inactive: 0 | 5 | 0 |
| CN1CCN(C(=O)c2ccc(-c3ccc4c(C=O)c(O)ccc4c3)s2)CC1 (2.5 µM) | inactive: 0 | inactive: 0 | inactive: 0 | inactive: 0 | inactive: 0 | inactive: 0 | inactive: 0 | inactive: 0 | inactive: 0 | inactive: 0 | inactive: 0 | inactive: 0 | inactive: 0 | inactive: 0 | inactive: 0 | inactive: 0 | inactive: 0 | inactive: 0 | 0 | 0 |
| COc1cc(C(=O)NC2CCN(C)CC2)c(F)cc1Nc1ncc2c(n1)N(C1CCCC1)CC(F)(F)C(=O)N2C [TAK-960 (dihydrochloride)] (2.5 µM) | inactive: 0 | inactive: 0 | inactive: 0 | inactive: 0 | inactive: 0 | inactive: 0 | inactive: 0 | inactive: 0 | inactive: 0 | inactive: 0 | inactive: 0 | inactive: 0 | inactive: 0 | inactive: 0 | inactive: 0 | inactive: 0 | inactive: 0 | inactive: 0 | 0 | 0 |
| CCCCOc1c(C(=O)c2c(F)cc(C)cc2F)c[nH]c2nncc1-2 (10 µM) | inactive: 0 | inactive: 0 | inactive: 0 | inactive: 0 | inactive: 0 | inactive: 0 | inactive: 0 | inactive: 0 | inactive: 0 | inactive: 0 | inactive: 0 | inactive: 0 | inactive: 0 | inactive: 0 | inactive: 0 | inactive: 0 | inactive: 0 | inactive: 0 | 0 | 0 |
| CNC(=O)c1cc(Oc2ccc(NC(=O)Nc3cc(C(C)(C)C)nn3-c3ccc4ncccc4c3)c(F)c2)ccn1 [Rebastinib] (2.5 µM) | inactive: 0 | inactive: 0 | inactive: 0 | inactive: 0 | inactive: 0 | inactive: 0 | inactive: 0 | inactive: 0 | inactive: 0 | inactive: 0 | inactive: 0 | inactive: 0 | inactive: 0 | inactive: 0 | inactive: 0 | inactive: 0 | inactive: 0 | inactive: 0 | 0 | 0 |
| COc1ccc(F)c(F)c1C(=O)c1cnc(NC2CCN(S(C)(=O)=O)CC2)nc1N (2.5 µM) | inactive: 0 | inactive: 0 | inactive: 0 | inactive: 0 | inactive: 0 | inactive: 0 | inactive: 0 | inactive: 0 | inactive: 0 | inactive: 0 | inactive: 0 | inactive: 0 | inactive: 0 | inactive: 0 | inactive: 0 | inactive: 0 | inactive: 0 | inactive: 0 | 0 | 0 |
| Cc1ccc(NC(=O)c2cccc(N(C)C)c2)cc1NC(=O)c1ccc(O)cc1 (10 µM) | inactive: 0 | inactive: 0 | inactive: 0 | inactive: 0 | inactive: 0 | inactive: 0 | inactive: 0 | inactive: 0 | inactive: 0 | inactive: 0 | inactive: 0 | inactive: 0 | inactive: 0 | inactive: 0 | inactive: 0 | inactive: 0 | inactive: 0 | inactive: 0 | 0 | 0 |
| COc1cc(C)c(Sc2cnc(NC(=O)c3ccc(CNC(C)C(C)(C)C)cc3)s2)cc1C(=O)N1CCN(C(C)=O)CC1 (stereo not drawn) (2.5 µM) | inactive: 0 | inactive: 0 | inactive: 0 | inactive: 0 | inactive: 0 | inactive: 0 | inactive: 0 | inactive: 0 | inactive: 0 | inactive: 0 | inactive: 0 | inactive: 0 | inactive: 0 | inactive: 0 | inactive: 0 | inactive: 0 | inactive: 0 | inactive: 0 | 0 | 0 |
| CNC(=O)c1ccccc1Nc1nc(Nc2ccc(N3CCOCC3)cc2OC)ncc1Cl (2.5 µM) | – | – | inactive: 0 | inactive: 0 | inactive: 0 | inactive: 0 | inactive: 0 | inactive: 0 | inactive: 0 | inactive: 0 | inactive: 0 | inactive: 0 | inactive: 0 | inactive: 0 | inactive: 0 | inactive: 0 | inactive: 0 | inactive: 0 | 0 | 0 |

Two compounds from above with just kinase-Nluc reporter destabilization hit call (ULK3):
Compound,kinase-Nluc reporter destabilization hit call (ULK3)
COc1ccc(F)c(F)c1C(=O)c1cnc(NC2CCN(S(C)(=O)=O)CC2)nc1N (2.5 µM),inactive: 0
Cc1ccc(NC(=O)c2cccc(N(C)C)c2)cc1NC(=O)c1ccc(O)cc1 (10 µM),inactive: 0
